Results are given in words; binding and its absence hold for the method and conditions named. Some entries that bind do so weakly or less than the wild type. For some assays here: Where a sequence is shown, tags or fusion partners need not be part of it.
How the values were obtained:
[1] = biological target: T1, FITC-labeled RA peptide …-FITC; assay: fluorescence polarization, single point
T1 sequence (peptide, C-terminal FITC): RAKLDEESILKQK

[2] = biological target: T2, FITC-labeled KA peptide …-FITC; assay: fluorescence polarization titration
T2 sequence (peptide, C-terminal FITC): KAKLDEESILKQK

[3] = biological target: T1, FITC-labeled RA peptide …-FITC; assay: fluorescence polarization titration
[4] = biological target: T1, FITC-labeled RA peptide …-FITC; assay: single point fluorescence polarization, FITC-peptide with UBR-streptavidin complex

B1: Saccharomyces cerevisiae UBR-box domain (PS538) (protein)
chain: MGDVHKHTGRNCGRKFKIGEPLYRCHECGCDDTCVLCIHCFNPKDHVNHHVCTDICTEFTSGICDCGDEEAWNSPLHCKAEEQ
For B1, which binding [1] is on record?
The binding was “binds”.

B2: Vombatus ursinus UBR-box domain (PS522) (protein)
chain: MLCGKVFKSGETTYSCRDCAIDPTCVLCMNCFQSSVHKNHRYKMHTSTGGGFCDCGDTEAWKTGPFCTIHEP
Which results are given for B2?
binding [2]: binds; binding [3]: binds

B3: Kluyveromyces lactis UBR-box domain (PS528) (protein)
chain: MHSKFNHAGRICGAKFRVGEPIYRCKECSFDDTCVLCVNCFNPKDHVGHHVYTSICTEFNNGICDCGDKEAWNHELNCKGAED
How did the binding [2] turn out when B3 was run?
The binding was “binds”.

What about the binding [4] of the same binder?
The binding was “binds”.

— patent US20210364527A1
